No constants are given. Whether binding was seen depends on the method and setting. Binding seen in cells or lysates may run through a third protein. Here binding means that the protein was enriched with, or labelled near, the bait; the list need not be complete.
Biological target: T1, ARAF (mouse (endogenous in NRAS-mutated murine melanoma cells)) (UniProt P04627)
T1 sequence: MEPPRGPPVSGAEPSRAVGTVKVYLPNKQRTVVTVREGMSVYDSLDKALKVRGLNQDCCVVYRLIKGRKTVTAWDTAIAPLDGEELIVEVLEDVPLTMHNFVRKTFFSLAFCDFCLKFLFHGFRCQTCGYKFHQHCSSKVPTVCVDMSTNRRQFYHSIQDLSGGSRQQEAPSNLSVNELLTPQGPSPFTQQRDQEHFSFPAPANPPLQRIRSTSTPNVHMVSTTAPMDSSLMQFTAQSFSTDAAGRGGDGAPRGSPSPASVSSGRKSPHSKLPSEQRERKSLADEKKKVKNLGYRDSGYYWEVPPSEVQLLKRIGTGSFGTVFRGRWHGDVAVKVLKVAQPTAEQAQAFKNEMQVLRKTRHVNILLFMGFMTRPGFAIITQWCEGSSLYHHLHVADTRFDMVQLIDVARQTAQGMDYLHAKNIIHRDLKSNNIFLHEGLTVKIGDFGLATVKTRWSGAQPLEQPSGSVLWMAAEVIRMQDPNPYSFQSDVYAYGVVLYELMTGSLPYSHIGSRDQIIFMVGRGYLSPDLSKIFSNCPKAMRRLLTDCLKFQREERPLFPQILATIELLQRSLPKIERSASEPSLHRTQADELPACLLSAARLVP
Test: affinity purification with mass spectrometry; endogenous ARAF immunoprecipitated (ARAF antibody, protein-A magnetic beads, 4 °C, 4 hours) from 1 mg NP40-buffer lysate of ARAF-only cells against control cells with shRNA against ARAF; label-free quantification

B1: Iap (protein, UniProt P03975 1-557)
chain: MALQVMFGLEFFLVLEALLFLFTCYQVVKAGRILDEIQDKLSEVKRGERVGTKRKYGTQNKYTGLSKGLEPEEKLRLGRNTWREIRRKRGKREKKKDQLAEVSRKRSLCSSLDGLGKPALSSSEAGEESSSEETDWEEEAAHYQPANWSRKKPKAAGEGQFADWPQGSRLQGPPYAESPPCVVRQQCAERCAERQCAERQCADSFIPREEQRKIQQAFPVFEGAEGGRVHAPVEYLQIKEIAESVRKYGTNANFTLVQLDRLAGMALTPADWQTVVKAALPSMGKYMEWRALWHEAAQAQARANAAALTPEQRDWTFDLLTGQGAYSADQTNYHWGAYAQISSTAIRPGRRSRAGETTGQLTKIIQGPQESFSDFVARMTEAAERIFGESEQAAPLIEQLIYEQATKECRAVHSPKKEQRLTRLAQGLSRAWGKPRLLKTDNGPAYTSQKFQQFCRQMDVTHLTGLPYNPQGQGIVERAHRTLKAYLIKQKRGTFEETVPRAPRVSVSLALFTLNFLNIDAHGHTAAERHVQSQIGPMRWLNGKMSLIINGMARILS
Q: How did the binding turn out when B1 was run?
A: The binding was “binds”.
